Literature values as cited in PMC6538516 (Journal of Veterinary Science, 2019).

Test system: CYP1A
Conditions: hepatic microsomes from Beagles; ref 13 (Regmi et al.); cited from earlier work

Compound: O=C(O)c1cn(C2CC2)c2cc(N3CCNCC3)c(F)cc2c1=O [ciprofloxacin]
- CYP1A-inhibiting effect: inhibited CYP1A in a non-competitive manner
